Experimental data reported in PubChem BioAssay AID2685 (National Center for Advancing Translational Sciences (NCATS), 2010).
This is one part of the list. Further columns of the screen follow, without active or inactive calls. Most of these compounds were active or inconclusive in the main read-out, so they are no random draw. The note in brackets gives the kind of curve behind each potency; many fits are weak.

Assay: qHTS Assay for Lipid Storage Modulators in Drosophila S3 Cells;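 on cell number change: cells counted by Cell Tracker Red CMTPX staining in the red channel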
Conditions: BODIPY lipid droplet fluorescence, 18-24 h; for cell number change: measured here: cell count max response, cells fed with added oleic acid
Procedure, shortened: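 Drosophila S3 cells got compounds at several concentrations plus oleic acid (400 uM solution). Laser-scanning cytometry with 488 nm excitation read lipid droplets at 500-530 nm and cells at 575-640 nm. Percent activity was relative to 20 uM Triacsin C.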

[1] = measured here: cell number channel AC50, cells fed with added oleic acid
[2] = measured here: lipid fluorescence (Fed channel) AC50, cells fed with added oleic acid

CCN(CC)C(=O)CSc1nc(OC)cc(=O)[nH]1
cell number change: 5.3% | AC50 [1]: 1.84 µM [falling, partial curve] | AC50 [2]: 0.731 µM [falling, full curve]

O=C1C2C3C=CC(C3)C2C(=O)N1c1n[nH]c(CCc2ccccc2)n1 (stereo not drawn)
cell number change: 7.27% | AC50 [2]: 20.6 µM [rising, partial curve]

O=C(O)COc1ccccc1/C=N/NC(=O)CSc1nc2ccccc2s1
cell number change: 28.1% | AC50 [2]: 6.51 µM [rising, single point]

Cc1ccnc(NS(=O)(=O)c2ccc(NC(=O)C3CCCCC3)cc2)n1
cell number change: -0.0431% | AC50 [2]: 32.6 µM [rising, single point]

O=C(Nc1ccccc1)c1ccc(COc2ccccc2)cc1
cell number change: 1.53% | AC50 [1]: 5.17 µM [falling, partial curve, poor fit] | AC50 [2]: 6.51 µM [falling, single point]

Cc1ccc(C(=O)N2CCn3c(C)ccc3C2C)cc1 (stereo not drawn)
AC50 [1]: 4.11 µM [rising, single point]

COc1ccc(NC(=O)C2CCCN(S(=O)(=O)c3ccc4[nH]c(=O)ccc4c3)C2)cc1 (stereo not drawn)
cell number change: 30.8% | AC50 [1]: 8.2 µM [rising, partial curve, poor fit]

CCOc1ccc(NC(=O)CSc2nnc(C34CC5CC(CC(C5)C3)C4)n2C)cc1
cell number change: 27.3% | AC50 [2]: 29.1 µM [rising, single point]

CCN(CC)CC(=O)Nc1ccccc1SCC(=O)Nc1ccsc1C(=O)OC
cell number change: 13.6% | AC50 [2]: 6.51 µM [rising, single point]

Cc1cc(C)n2c(SCc3ccccc3Cl)nnc2n1
cell number change: 93.6% | AC50 [2]: 16.4 µM [rising, partial curve]

Cc1csc2nc(O)c(C(=O)NC3CCCCC3)c(=O)n12
cell number change: -25.5% | AC50 [2]: 18.4 µM [falling, single point]

O=C(C1=C[C@H](c2csc3ccccc23)C[C@H](OCCCCO)O1)N1CCN(Cc2ccc3c(c2)OCO3)CC1
cell number change: -32.6% | AC50 [1]: 29.1 µM [falling, single point]

CS(=O)(=O)c1ccc([C@@H](O)[C@@H](CF)NC(=O)C(Cl)Cl)cc1
cell number change: -6.48% | AC50 [2]: 0.366 µM [falling, full curve, poor fit]

COc1cccc(C(=O)NNC(=O)c2ccccc2)c1
cell number change: -6.59%

CCCC[C@]12Cc3ccccc3[C@H](O1)C1=C(O2)C(=O)c2ccccc2C1=O
cell number change: 10.2% | AC50 [2]: 5.31 µM [rising, single point]

CC(C)CNC(=O)COC(=O)c1ccc(F)cc1Cl
cell number change: 0.947%

COCCCn1c(SCC(=O)N(C)C)nnc1-c1ccccc1
cell number change: 1.35% | AC50 [2]: 0.82 µM [falling, single point]

Cc1ccc2nsnc2c1NC(=O)c1ccc(-c2cc(Cl)ccc2Cl)o1
cell number change: -7.13% | AC50 [1]: 3.66 µM [falling, partial curve] | AC50 [2]: 5.17 µM [falling, full curve, poor fit]

N=c1ccccn1CC(O)COc1ccccc1 (stereo not drawn)
cell number change: -8.66% | AC50 [2]: 3.66 µM [falling, full curve, poor fit]

N#Cc1ccc(OCC(=O)Nc2ccncc2)cc1
cell number change: -6.31% | AC50 [2]: 0.58 µM [falling, single point]

COc1ccc(CCNC(=O)CSc2nnc3ccccn23)cc1
AC50 [1]: 0.58 µM [rising, single point]

CC(=O)NNC(=O)CSc1nnc(-c2ccccc2)c(-c2ccccc2)n1
cell number change: 3.04%

CCOc1ccc(NC(=O)COC(=O)c2ccc3c(c2)C(=O)N(CCc2ccccc2)C3=O)cc1
AC50 [2]: 6.51 µM [rising, single point]

CCN1CCN(C(=S)Nc2ccc3nc(N4CCN(CC)CC4)cc(C)c3c2)CC1
cell number change: -42.2% | AC50 [1]: 3.66 µM [falling, full curve] | AC50 [2]: 29.1 µM [falling, single point]

COc1ccc(Cc2c(Cl)ncnc2Cl)cc1
AC50 [2]: 14.6 µM [falling, partial curve]

CSc1ccccc1OCc1cc(C(=O)N2CCN(Cc3nccn3C)CC2)no1
cell number change: 21.6% | AC50 [2]: 29.1 µM [falling, single point]

CCOC(=O)c1cc2ccccc2n1CC(=O)c1ccccc1
cell number change: 66% | AC50 [1]: 29.1 µM [rising, single point]

O=C(CN(C(=O)c1nsc(Cl)c1Cl)c1ccc(F)cc1)NC1CCCC1
cell number change: 6.35% | AC50 [2]: 14.6 µM [rising, partial curve]

COc1ccc(CCC(=O)Nc2nc3ccccc3[nH]2)cc1OC
cell number change: 96.1% | AC50 [1]: 1.3 µM [rising, full curve] | AC50 [2]: 2.31 µM [rising, full curve]

COc1ccc(NC(=O)c2cc(-c3ccccc3Cl)on2)cc1
cell number change: 35.5% | AC50 [1]: 18.4 µM [rising, partial curve, poor fit]

CC(C)C(=O)Nc1cccc(C(=O)Nc2cc([N+](=O)[O-])ccc2F)c1
AC50 [2]: 0.116 µM [rising, full curve, poor fit]

CCc1c(C)sc(NC(=O)c2ccco2)c1C#N
cell number change: -8.29% | AC50 [2]: 6.51 µM [rising, single point]

COc1ccc(CCC(=O)N2CCN(S(=O)(=O)c3cccc(C(F)(F)F)c3)CC2)cc1OC
cell number change: 6.97% | AC50 [2]: 4.61 µM [rising, full curve, poor fit]

O=C(CCC1CCCC1)N=C1SC2CS(=O)(=O)CC2N1Cc1ccccc1 (stereo not drawn)
cell number change: 9.92% | AC50 [2]: 29.1 µM [falling, single point]

O=C(NCC1CCCO1)c1cccc(NC(=O)c2ccccc2)c1 (stereo not drawn)
cell number change: -16.1% | AC50 [2]: 0.00461 µM [falling, full curve, poor fit]

CSc1cccc(NC(=O)CN(Cc2ccc(Cl)cc2)S(C)(=O)=O)c1
cell number change: 29.4%

Cc1csc(SCC(=O)Nc2cc(S(=O)(=O)N3CCOCC3)ccc2N2CCOCC2)n1
cell number change: 8.95% | AC50 [2]: 29.1 µM [falling, single point]

COc1cc(NC(=S)NCCCN2CCOCC2)cc(OC)c1OC
cell number change: -45.4% | AC50 [1]: 0.92 µM [falling, full curve]

COc1cc(/C=N/NC(=O)CN2CCOCC2)ccc1OCc1ccccc1
cell number change: 7.42% | AC50 [1]: 0.82 µM [falling, full curve, poor fit]

COc1cccc(NC(=O)Cc2nnc(SCCOc3ccccc3)n2C)c1
cell number change: 9.53%

Cc1cc(C)nc(NS(=O)(=O)c2ccc(NC(=O)c3snnc3C)cc2)n1
cell number change: 8.85%

CC(=O)Nc1sc2c(c1C(c1ccccn1)N1CCCC1)CCCC2 (stereo not drawn)
cell number change: -24.9% | AC50 [2]: 0.103 µM [falling, full curve, poor fit]

CCC1CCC2(CC1)NC(=O)N(CC(=O)Nc1ccc(OC)cc1)C2=O (stereo not drawn)
cell number change: -1.41% | AC50 [2]: 0.00461 µM [rising, full curve, poor fit]

Cc1cc(C)c(S(=O)(=O)N2CCCOC2CNC(=O)C(=O)NCCc2c[nH]c3ccccc23)c(C)c1 (stereo not drawn)
cell number change: -70.6% | AC50 [1]: 20.6 µM [falling, partial curve] | AC50 [2]: 8.2 µM [falling, partial curve]

O=[N+]([O-])c1ccc(OCC(O)CN(C2CCCCC2)C2CCCCC2)cc1 (stereo not drawn)
cell number change: -11.7% | AC50 [2]: 0.82 µM [falling, partial curve, poor fit]

C/C(CC(=O)Nc1ccc(F)cc1F)=N\NC(=O)C(=O)N1CCCCC1
cell number change: -0.952% | AC50 [2]: 29.1 µM [rising, single point]

COC(=O)COn1c(SCC(=O)OC)nc2ccccc2c1=O
cell number change: -20.8% | AC50 [1]: 4.11 µM [falling, full curve, poor fit] | AC50 [2]: 4.11 µM [falling, full curve, poor fit]

Cc1cc(C)n2ncc(C(=O)NCc3ccc(Cl)cc3)c2n1
cell number change: 68.1% | AC50 [1]: 25.9 µM [rising, partial curve] | AC50 [2]: 0.259 µM [rising, full curve]

CC(=O)Nc1ccc(NC(=O)COc2ccc(S(=O)(=O)N3CCCC3)cc2C)cc1
cell number change: 2.52% | AC50 [2]: 0.291 µM [rising, partial curve, poor fit]

COc1cccc(NC(=O)CN(C)C(=O)COc2ccccc2Cc2ccccc2)c1
cell number change: -4.69% | AC50 [2]: 25.9 µM [falling, single point]

Cc1ccc(C(=O)N/N=C\c2cc3c(cc2Br)OCO3)s1
cell number change: 1.43% | AC50 [1]: 1.16 µM [rising, partial curve] | AC50 [2]: 0.116 µM [rising, full curve]

C(=N\N(c1ccccc1)c1ccccc1)/c1ccc(N2CCOCC2)s1
AC50 [1]: 6.51 µM [rising, single point] | AC50 [2]: 18.4 µM [falling, partial curve]

COc1ccc(Nc2nc(C)cc(C)c2C#N)cc1OC
cell number change: 25.3% | AC50 [2]: 2.59 µM [rising, single point]

COc1ccc(N2CCN(C(=O)CN(c3ccccc3)S(=O)(=O)c3ccc(OC)cc3)CC2)cc1
cell number change: 24.7% | AC50 [1]: 0.651 µM [rising, single point] | AC50 [2]: 29.1 µM [rising, single point]

Cc1ncn(-c2ccc(C(=O)Oc3ccccc3)cn2)n1
cell number change: -22.3%

CC(NC(=O)CCc1ccccc1)c1ccc2c(c1)OCO2 (stereo not drawn)
cell number change: -14.7%

O=c1c2ccccc2cnn1Cc1ccc(Cl)c(Cl)c1
cell number change: -9.52% | AC50 [2]: 3.66 µM [falling, single point]

O=C1NC(Nc2nccs2)(C(F)(F)F)C(=O)N1CCc1ccccc1 (stereo not drawn)
cell number change: 78% | AC50 [1]: 8.2 µM [rising, partial curve] | AC50 [2]: 9.2 µM [rising, partial curve]

CCOC(=O)c1c(NC(=O)CSc2nnc(C)o2)sc(C)c1C
cell number change: 4.88% | AC50 [2]: 0.0092 µM [rising, full curve, poor fit]

CCCN1CCC(=O)N(CCN=[N+]=[N-])CC1
cell number change: 18.4% | AC50 [2]: 4.11 µM [rising, full curve]
